Data taken from article PMC4901042.
These are yes or no findings as the source states them, for the method shown. Some results given as binding are weak or reduced against the parent protein; the word gives no strength.

Protein sequences, listed by entry. Tags and fused reporters are not part of them.
UniProt O64645: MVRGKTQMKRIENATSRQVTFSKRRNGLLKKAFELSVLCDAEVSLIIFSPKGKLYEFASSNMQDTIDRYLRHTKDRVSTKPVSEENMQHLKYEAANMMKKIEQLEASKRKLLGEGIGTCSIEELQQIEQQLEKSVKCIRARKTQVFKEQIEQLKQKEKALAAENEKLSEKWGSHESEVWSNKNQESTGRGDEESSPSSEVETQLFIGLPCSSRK

Columns and labels:
Assay in all cases: two-hybrid; Matchmaker Two-Hybrid System (Clontech); pGBKT7 (BD) and pGADT7 (AD) fusions cotransformed in yeast; SD/-Trp/-Leu/-His/-Ade/X-α-gal (40 μg/ml) with 5 mM 3-AT; grade by the number of clones
[1] = target: SUPPRESSOR OF OVEREXPRESSION OF CONSTANS 1 (SOC1) of Arabidopsis (Arabidopsis) (UniProt O64645)
[2] = target: …3 (SEP3) of Arabidopsis (Arabidopsis) (UniProt O22456)
[3] = target: T1, AGAMOUS-LIKE 24 (AGL24) of Arabidopsis (Arabidopsis) (UniProt O82794)
T1 sequence: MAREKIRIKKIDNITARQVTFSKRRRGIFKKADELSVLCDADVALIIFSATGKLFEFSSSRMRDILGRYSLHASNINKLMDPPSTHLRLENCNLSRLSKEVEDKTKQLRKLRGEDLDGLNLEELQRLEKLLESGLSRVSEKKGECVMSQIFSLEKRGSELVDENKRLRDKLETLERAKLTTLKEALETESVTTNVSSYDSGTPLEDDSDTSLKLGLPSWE

| binding [1] | binding [2] | binding [3] | Substance |
| --- | --- | --- | --- |
| binds | binds |  | SHORT … PHASE (SVP) of Arabidopsis (from UniProt Q9FVC1-1 1-240) |
|  |  | binds | SUPPRESSOR OF OVEREXPRESSION OF CONSTANS 1 (SOC1) of Arabidopsis (from UniProt O64645 1-214) |
